Paper PMC9798707, “Targeting SOST using a small-molecule compound retards breast cancer bone metastasis” (Molecular Cancer, 2022)
Results are given in words; binding and its absence hold for the method and conditions named. In cells and extracts the contact can be indirect. Some entries that bind do so weakly or less than the wild type.

Amino acid sequences for entries named in this document (tags omitted). Residues count along the entry.
UniProt P40763: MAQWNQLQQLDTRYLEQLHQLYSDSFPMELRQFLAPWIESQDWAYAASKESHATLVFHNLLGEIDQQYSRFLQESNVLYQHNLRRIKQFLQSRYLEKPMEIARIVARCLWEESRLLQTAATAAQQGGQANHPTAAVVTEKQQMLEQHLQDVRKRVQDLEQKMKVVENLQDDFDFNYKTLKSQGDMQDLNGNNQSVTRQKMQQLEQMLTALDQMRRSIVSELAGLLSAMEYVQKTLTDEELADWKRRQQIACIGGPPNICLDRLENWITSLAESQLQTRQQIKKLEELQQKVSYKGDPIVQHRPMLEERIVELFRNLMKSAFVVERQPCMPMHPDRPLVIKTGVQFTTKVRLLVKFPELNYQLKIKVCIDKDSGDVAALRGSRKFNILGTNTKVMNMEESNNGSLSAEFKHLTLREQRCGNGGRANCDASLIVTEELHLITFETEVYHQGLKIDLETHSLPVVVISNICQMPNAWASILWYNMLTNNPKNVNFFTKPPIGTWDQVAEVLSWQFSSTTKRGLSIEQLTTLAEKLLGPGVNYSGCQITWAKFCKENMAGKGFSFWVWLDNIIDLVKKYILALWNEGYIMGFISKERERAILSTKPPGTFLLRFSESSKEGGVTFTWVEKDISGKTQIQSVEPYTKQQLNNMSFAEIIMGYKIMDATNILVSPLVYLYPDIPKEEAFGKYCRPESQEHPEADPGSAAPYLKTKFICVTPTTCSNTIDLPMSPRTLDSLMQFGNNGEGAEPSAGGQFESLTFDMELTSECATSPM
UniProt Q9BQB4, residues 24-213: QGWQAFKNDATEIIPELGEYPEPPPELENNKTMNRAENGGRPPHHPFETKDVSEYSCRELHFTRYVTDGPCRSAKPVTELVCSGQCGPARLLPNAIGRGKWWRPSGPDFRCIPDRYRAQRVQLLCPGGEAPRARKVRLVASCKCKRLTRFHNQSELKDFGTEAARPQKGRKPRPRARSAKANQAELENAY

How the values were obtained:
[1] = target: Signal transducer and activator of transcription 3 (STAT3) (human (endogenous in SCP2)) (UniProt P40763); experiment: co-IP; SCP2 cell lysate in RIPA buffer (50 µg/tube) with anti-SOST, anti-STAT3 or control isotype IgG (2 µg), 4 °C overnight; protein A/G plus-agarose beads; blotted with anti-STAT3 or anti-SOST
[2] = target: Signal transducer and activator of transcription 3 (STAT3) (human (endogenous in SCP2)) (UniProt P40763); experiment: condition: only lysate pre-treated with 200 μM S6 compound; co-IP; as a1, but the SCP2 cell lysate (1 ml) was pre-treated with 200 μM S6 compound at room temperature for one hour before the antibodies were added
[3] = target: Sclerostin (SOST) (human (endogenous in SCP2)) (UniProt Q9BQB4); experiment: co-IP; SCP2 cell lysate in RIPA buffer (50 µg/tube) with anti-SOST, anti-STAT3 or control isotype IgG (2 µg), 4 °C overnight; protein A/G plus-agarose beads; blotted with anti-STAT3 or anti-SOST

| binding [1] | binding [2] | binding [3] | Substance |
| --- | --- | --- | --- |
| binds | no binding | – | Sclerostin (SOST) (from UniProt Q9BQB4 24-213) |
| – | – | binds | Signal transducer and activator of transcription 3 (STAT3) (from UniProt P40763 1-770) |
